From PubChem BioAssay AID248 (DTP/NCI, 2004)
The list is a part of this screen's results and no random one: it is rich in T/C values a quarter to a half above the control, in often repeated tests (any T/C) and in doses without a T/C. Further doses and runs are listed elsewhere. T/C is the treated group as % of the vehicle group. Some doses have a count of surviving animals in place of a T/C: the source files T/C as zero there, which appears to mark a toxic dose or a test without result, not a measured value. Some doses without a T/C left all or most animals alive at the check, yet need not have been tolerated: survival well below the control is almost never listed, so the zero probably covers shortened survival too. Survivors were counted at the toxicity check, usually on the fifth day, unless a day is given; later deaths do not show. Schedule codes are those of the source, taken here to give the interval after Q, in days (D) or hours (H), and the number of doses after X. Some entries were tested several times; the values are given in rising order. Some schedule codes hold Z or #, which are not explained here. Some structures stand for samples that the source files as different forms (salt, stereo form or complex); doses refer to the form tested. For survival time, the PubChem record calls one and a half times the control and up active, and a quarter to a half above the control has no call in these data; cut-offs in other NCI protocols can differ. Some T/C values carry the count of animals alive at the toxicity check (mostly the fifth day); without a count, all were alive then.

Tested on: L1210 leukemia ip in BDF1 mice, survival T/C
Assay: NCI In Vivo Anticancer Drug Screen. Data for tumor model L1210 Leukemia (intraperitoneal) in B6D2F1 (BDF1) mice
Settings: T/C endpoint: mean survival time, higher T/C = longer survival
[1] = dose: 400.0 mg/kg/injection, schedule: Q01DX001 (ip), vehicle: Klucel (hydroxypropylcellulose) (HPC)
[2] = dose: 400.0 mg/kg/injection, schedule: Q04DX002 (ip), vehicle: saline with Tween-80
[3] = dose: 400.0 mg/kg/injection, schedule: Q04DX003 (ip), vehicle: saline
[4] = dose: 400.0 mg/kg/injection, schedule: Q04DX003 (ip), vehicle: Klucel (hydroxypropylcellulose) (HPC)
[5] = dose: 100.0 mg/kg/injection, schedule: Q01DX009 (ip), vehicle: saline with Tween-80
[6] = dose: 200.0 mg/kg/injection, schedule: Q01DX009 (ip), vehicle: saline with Tween-80

## Cc1cc(NC(=O)CCc2ccc(N3C(N)=NC(N)=NC3(C)C)cc2)ccc1S(=O)(=O)F
dose: 27.0 mg/kg/injection, schedule: Q## X018 (ip), vehicle: saline
  T/C: 126 % of control
dose: 41.0 mg/kg/injection, schedule: Q## X018 (ip), vehicle: saline
  T/C: 128 % of control
dose: 62.0 mg/kg/injection, schedule: Q## X018 (ip), vehicle: saline
  T/C: 129 and 148 % of control
dose: 62.5 mg/kg/injection, schedule: Q12HX018 (ip), vehicle: acetone
  T/C: 125 % of control
dose: 64.0 mg/kg/injection, schedule: Q03HX024 (ip), vehicle: other
  T/C: 129 % of control
dose: 125.0 mg/kg/injection, schedule: Q12HX018 (ip), vehicle: acetone
  survivor count: 0 of 6
dose: 125.0 mg/kg/injection, schedule: Q## X018 (ip), vehicle: saline
  T/C: 135 % of control
dose: 128.0 mg/kg/injection, schedule: Q01DX001 (ip), vehicle: other
  survivor count: 4 of 10
dose: 128.0 mg/kg/injection, schedule: Q01DX009 (ip), vehicle: other
  survivor count: 0 of 10
dose: 128.0 mg/kg/injection, schedule: Q03HX008 (ip), vehicle: other
  survivor count: 6 of 10
dose: 128.0 mg/kg/injection, schedule: Q04DX003 (ip), vehicle: other
  survivor count: 4 of 10
dose: 200.0 mg/kg/injection, schedule: Q01DX001 (ip), vehicle: Klucel (hydroxypropylcellulose) (HPC)
  survivor count: 0 of 6
dose: 250.0 mg/kg/injection, schedule: Q12HX018 (ip), vehicle: acetone
  survivor count: 0 of 6
dose: 250.0 mg/kg/injection, schedule: Q## X018 (ip), vehicle: saline
  survivor count: 3 of 6
dose: 256.0 mg/kg/injection, schedule: Q01DX001 (ip), vehicle: other
  survivor count: 0 of 10
dose: 256.0 mg/kg/injection, schedule: Q01DX009 (ip), vehicle: other
  survivor count: 0 of 10
dose: 256.0 mg/kg/injection, schedule: Q04DX003 (ip), vehicle: other
  survivor count: 3 of 10
[1]
  survivor count: 0 of 6
dose: 500.0 mg/kg/injection, schedule: Q## X018 (ip), vehicle: saline
  survivor count: 0 of 6
dose: 512.0 mg/kg/injection, schedule: Q01DX001 (ip), vehicle: other
  survivor count: 0 of 10
dose: 512.0 mg/kg/injection, schedule: Q04DX003 (ip), vehicle: other
  survivor count: 0 of 10
dose: 1024.0 mg/kg/injection, schedule: Q01DX001 (ip), vehicle: other
  survivor count: 0 of 10

## NC(CSS(=O)(=O)O)=NCCCC1CCCCC1
dose: 25.0 mg/kg/injection, schedule: Q04DX002 (ip), vehicle: saline with Tween-80
  survivor count: 0 of 3
dose: 100.0 mg/kg/injection, schedule: Q04DX002 (ip), vehicle: saline with Tween-80
  survivor count: 0 of 3
dose: 200.0 mg/kg/injection, schedule: Q04DX002 (ip), vehicle: saline with Tween-80
  survivor count: 0 of 3
[2]
  survivor count: 0 of 3

## COc1ccc(COC(=O)Nc2ccccc2C(F)(F)F)cc1
dose: 400.0 mg/kg/injection, schedule: Q01DX009 (ip), vehicle: gum acacia
  survivor count: 3 of 6

## O=C(O)CSc1ccccc1C(=O)O
dose: 400.0 mg/kg/injection, schedule: Q01DX001 (ip), vehicle: saline
  survivor count: 2 of 4

## N#Cc1cccc(N)c1
dose: 200.0 mg/kg/injection, schedule: Q01DX001 (ip), vehicle: saline
  survivor count: 0 of 4

## Cc1cc(CC(=S)[S-])[n+](C)c(CC(=S)S)c1
dose: 350.0 mg/kg/injection, schedule: Q01DX009 (ip), vehicle: Klucel (hydroxypropylcellulose) (HPC)
  survivor count: 2 of 6

## O=C(S)c1ccccc1.[Pb]
[2]
  survivor count: 0 of 3

## CC(O)C1CCCNC1 (stereo unspecified)
[3]
  survivor count: 0 of 6

## C#CC(OC(=O)NC)(c1ccccc1)c1ccc(OC)cc1 (stereo unspecified)
dose: 17.0 mg/kg/injection, schedule: Q01DX006 (ip), vehicle: Klucel (hydroxypropylcellulose) (HPC)
  T/C: 128 % of control
dose: 25.0 mg/kg/injection, schedule: Q01DX009 (ip), vehicle: Klucel (hydroxypropylcellulose) (HPC)
  T/C: 130 and 136 % of control
dose: 100.0 mg/kg/injection, schedule: Q01DX009 (ip), vehicle: Klucel (hydroxypropylcellulose) (HPC)
  survivor count: 1 of 6
dose: 200.0 mg/kg/injection, schedule: Q04DX003 (ip), vehicle: Klucel (hydroxypropylcellulose) (HPC)
  survivor count: 2 of 6
[4]
  survivor count: 0 of 6

## CCC(C#N)N1CC1 (stereo unspecified)
dose: 60.0 mg/kg/injection, schedule: Q01DX001 (ip), vehicle: saline
  survivor count: 6 of 6
dose: 75.0 mg/kg/injection, schedule: Q01DX001 (ip), vehicle: carboxymethylcellulose (CMC)
  survivor count: 4 of 6
dose: 150.0 mg/kg/injection, schedule: Q01DX001 (ip), vehicle: carboxymethylcellulose (CMC)
  survivor count: 1 of 6
dose: 300.0 mg/kg/injection, schedule: Q01DX001 (ip), vehicle: carboxymethylcellulose (CMC)
  survivor count: 0 of 6

## N#Cc1ccccc1NN=Nc1ccccc1-c1nc(N)nc(N)n1
dose: 100.0 mg/kg/injection, schedule: Q04DX003 (ip), vehicle: saline
  survivor count: 2 of 6

## Clc1ccccc1Nc1ccnc(SCc2ccccc2)n1
dose: 200.0 mg/kg/injection, schedule: Q01DX001 (ip), vehicle: DMSO
  survivor count: 5 of 6
dose: 400.0 mg/kg/injection, schedule: Q01DX001 (ip), vehicle: DMSO
  survivor count: 6 of 6

## CCOc1cc[n+]([O-])cc1
[1]
  survivor count: 1 of 3
[3]
  survivor count: 1 of 6

## Cc1ccc(Cl)cc1NC(=O)c1cccc(C(=O)Nc2cc(Cl)ccc2C)c1
[4]
  survivor count: 6 of 6

## CCCCCCCC/C=C\CCCCCCCC(=O)NCC[N+]1(C)CCCCC1
dose: 300.0 mg/kg/injection, schedule: Q01DX001 (ip), vehicle: saline
  survivor count: 2 of 6

## CCCCCCCCCCCCCCCCCC[N+]1(CC)CCOCC1
dose: 12.5 mg/kg/injection, schedule: Q04DX002 (ip), vehicle: carboxymethylcellulose (CMC)
  T/C: 90, 92, 97, 107 % of control
dose: 25.0 mg/kg/injection, schedule: Q01DX009 (ip), vehicle: carboxymethylcellulose (CMC)
  survivor count: 0 of 6 and 1 of 3
dose: 50.0 mg/kg/injection, schedule: Q04DX002 (ip), vehicle: carboxymethylcellulose (CMC)
  survivor count: 0 of 3 and 5 of 6
dose: 100.0 mg/kg/injection, schedule: Q04DX002 (ip), vehicle: carboxymethylcellulose (CMC)
  survivor count: 0 of 3 and 0 of 6
dose: 200.0 mg/kg/injection, schedule: Q04DX002 (ip), vehicle: carboxymethylcellulose (CMC)
  survivor count: 0 of 3 and 0 of 6
dose: 400.0 mg/kg/injection, schedule: Q04DX002 (ip), vehicle: carboxymethylcellulose (CMC)
  survivor count: 0 of 3 and 0 of 6

## Cc1c(Cl)cccc1NC(=O)Nc1cccc2c(O)cccc12
dose: 50.0 mg/kg/injection, schedule: Q01DX009 (ip), vehicle: saline with Tween-80
  survivor count: 3 of 3
[5]
  T/C: 89 and 90 % of control
  survivor count: 3 of 3 and 6 of 6
dose: 100.0 mg/kg/injection, schedule: Q04DX003 (ip), vehicle: saline with Tween-80
  survivor count: 6 of 6
[6]
  T/C: 86 and 86 % of control [2 of 3 alive]
  survivor count: 3 of 3 and 6 of 6
dose: 400.0 mg/kg/injection, schedule: Q04DX003 (ip), vehicle: saline with Tween-80
  survivor count: 6 of 6
